The list shows a part of the results. Repeats are few or missing, and single values can be far off.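 Cells were imaged in 1,536-well plates, and nuclei stained with an antibody against cleaved PARP were counted against all DNA-stained nuclei to give the apoptosis fraction. Screening doses were chosen to leave most cells alive, and resting and induced cleaved-PARP levels differ strongly between cell lines.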
Key:
Experiment in all cases: cleaved PARP positive nuclei fraction relative to DMSO control; melanoma cells; higher = more apoptosis
Settings in all cases: library dose: low library concentration; 72 h
[1] = test system: 501Mel
[2] = test system: A101D
[3] = test system: A2058
[4] = test system: A375
[5] = test system: C32
[6] = test system: CBRC008 (line from a melanoma biopsy)
[7] = test system: CBRC014 (line from a melanoma biopsy)
[8] = test system: CBRC016 (line from a melanoma biopsy)
[9] = test system: CBRC017 (line from a melanoma biopsy)

Row | SMILES | cleaved PARP positive nuclei fraction [1] [%] | cleaved PARP positive nuclei fraction [2] [%] | cleaved PARP positive nuclei fraction [3] [%] | cleaved PARP positive nuclei fraction [4] [%] | cleaved PARP positive nuclei fraction [5] [%] | cleaved PARP positive nuclei fraction [6] [%] | cleaved PARP positive nuclei fraction [7] [%] | cleaved PARP positive nuclei fraction [8] [%] | cleaved PARP positive nuclei fraction [9] [%]
1 | COc1ccc(C2=N[C@@H](c3ccc(Cl)cc3)[C@@H](c3ccc(Cl)cc3)N2C(=O)N2CCNC(=O)C2)c(OC(C)C)c1 [Nutlin-3] + O=C(O)c1ccc2c(c1)nc(Nc1cccc(Cl)c1)c1ccncc12 [CX4945] (first compound 0.1 µM, partner dose 0.4 µM) | 85.8 | 177 | 343 | 103 | 167 | 145 | 117 | 61.6 | 154
2 | CCN(CC)CCNC(=O)c1c(C)[nH]c(/C=C2\C(=O)Nc3ccc(F)cc32)c1C [sunitinib] + Nc1cccc2c1CN(C1CCC(=O)NC1=O)C2=O [lenalidomide] (first compound 0.4 µM, partner dose 1 µM) | 92.9 | 114 | 99.5 | 140 | 89.7 | 138 | 98.3 | 39.4 | 93.7
3 | Cn1sc(=O)n(Cc2ccccc2)c1=O + Cn1c(Nc2ccc(C(F)(F)F)cc2)nc2cc(Oc3ccnc(-c4ncc(C(F)(F)F)[nH]4)c3)ccc21 [CHIR265] (first compound 0.4 µM, partner dose 0.08 µM) | 88 | 146 | 130 | 138 | 107 | 111 | 248 | 43.3 | 98.3
4 | COc1ccc(C2=N[C@@H](c3ccc(Cl)cc3)[C@@H](c3ccc(Cl)cc3)N2C(=O)N2CCNC(=O)C2)c(OC(C)C)c1 [Nutlin-3] + CC(C)C[C@H](NC(=O)[C@H](Cc1ccccc1)NC(=O)c1cnccn1)B(O)O [Bortezomib] (first compound 0.1 µM, partner dose 0.001 µM) | 96.3 | 195 | 89 | 138 | 96 | 357 | 136 | 118 | 201
5 | Cn1cnc2c(F)c(Nc3ccc(Br)cc3Cl)c(C(=O)NOCCO)cc21 [selumetinib] + CCCCCCCCc1ccc(CCC(N)(CO)CO)cc1 [fingolimod] (first compound 0.015 µM, partner dose 2 µM) | 1190 | 110 | 34.7 | 374 | 187 | 127 | 93.6 | 182 | 129
6 | C[C@]1(O)C[C@@H](c2nc(-c3ccc4ccc(-c5ccccc5)nc4c3)c3c(N)nccn32)C1 + CC(C)C[C@H](NC(=O)[C@H](Cc1ccccc1)NC(=O)c1cnccn1)B(O)O [Bortezomib] (first compound 0.4 µM, partner dose 0.001 µM) | 420 | 84.1 | 185 | 274 | 35.8 | 250 | 120 | 38.2 | 162
7 | COc1ccc(C2=N[C@@H](c3ccc(Cl)cc3)[C@@H](c3ccc(Cl)cc3)N2C(=O)N2CCNC(=O)C2)c(OC(C)C)c1 [Nutlin-3] + Cn1nnc2c(C(N)=O)ncn2c1=O [temozolomide] (first compound 0.1 µM, partner dose 2 µM) | 170 | 72 | 68.6 | 143 | 85.7 | 39 | 97.6 | 23.4 | 178
8 | C[C@]1(O)C[C@@H](c2nc(-c3ccc4ccc(-c5ccccc5)nc4c3)c3c(N)nccn32)C1 + C=C(c1ccc(C(=O)O)cc1)c1cc2c(cc1C)C(C)(C)CCC2(C)C [Bexarotene] (first compound 0.4 µM, partner dose 2 µM) | 180 | 50.4 | 113 | 444 | 102 | 364 | 142 | 45.3 | 156
9 | C[C@@H](N)c1ccc(C(=O)Nc2ccnc3[nH]ccc23)cc1 + COc1ccc(Cl)c(Nc2nc3ccccc3nc2NS(=O)(=O)c2cccc(NC(=O)C(C)(C)N)c2)c1 [XL147] (first compound 0.4 µM, partner dose 0.8 µM) | 67.6 | 102 | 47.5 | 125 | 84.2 | 89.8 | 197 | 113 | 186
10 | C[C@@H](N)c1ccc(C(=O)Nc2ccnc3[nH]ccc23)cc1 + Cc1cc(Nc2cc(N3CCN(C)CC3)nc(/C=C/c3ccccc3)n2)n[nH]1 [ENMD2076] (first compound 0.4 µM, partner dose 0.04 µM) | 143 | 44.5 | 113 | 299 | 84.4 | 133 | 101 | 114 | 95.6
11 | CCN(CC)CCNC(=O)c1c(C)[nH]c(/C=C2\C(=O)Nc3ccc(F)cc32)c1C [sunitinib] + CNC(=O)c1cc(Oc2ccc(NC(=O)Nc3ccc(Cl)c(C(F)(F)F)c3)cc2)ccn1 [sorafenib] (first compound 0.4 µM, partner dose 0.4 µM) | 167 | 110 | 50.8 | 68.6 | 85.1 | 33.5 | 76.2 | 57 | 107
12 | C[C@]1(O)C[C@@H](c2nc(-c3ccc4ccc(-c5ccccc5)nc4c3)c3c(N)nccn32)C1 + OCc1c[nH]c2ccccc12 [Indole-3-carbinol] (first compound 0.4 µM, partner dose 0.8 µM) | 337 | 127 | 81.7 | 549 | 89 | 61.9 | 110 | 44.1 | 124
13 | COc1ccc(C2=N[C@@H](c3ccc(Cl)cc3)[C@@H](c3ccc(Cl)cc3)N2C(=O)N2CCNC(=O)C2)c(OC(C)C)c1 [Nutlin-3] + NC1(c2ccc(-c3nc4ccn5c(=O)[nH]nc5c4cc3-c3ccccc3)cc2)CCC1 [MK2206] (first compound 0.1 µM, partner dose 0.4 µM) | 113 | 50.7 | 40.7 | 120 | 31 | 105 | 87.2 | 112 | 111
14 | NC(=O)c1ccc(N(C(N)=O)c2c(F)cccc2F)nc1-c1ccc(F)cc1F + CC(=O)c1c(C)c2cnc(Nc3ccc(N4CCNCC4)cn3)nc2n(C2CCCC2)c1=O [palbociclib] (first compound 0.4 µM, partner dose 0.04 µM) | 237 | 57.9 | 60 | 102 | 83.3 | 59 | 107 | 95.9 | 118
15 | CCCCCCCCc1ccc(CCC(N)(CO)CO)cc1 [fingolimod] + CC(=O)c1c(C)c2cnc(Nc3ccc(N4CCNCC4)cn3)nc2n(C2CCCC2)c1=O [palbociclib] (first compound 2 µM, partner dose 0.04 µM) | 233 | 114 | 55.6 | 494 | 91.7 | 53.7 | 113 | 16700 | 162
16 | COc1ccc(C2=N[C@@H](c3ccc(Cl)cc3)[C@@H](c3ccc(Cl)cc3)N2C(=O)N2CCNC(=O)C2)c(OC(C)C)c1 [Nutlin-3] + C#Cc1cccc(Nc2ncnc3cc(OCCOC)c(OCCOC)cc23)c1 [erlotinib] (first compound 0.1 µM, partner dose 0.8 µM) | 80.2 | 58.1 | 104 | 186 | 92 | 35.3 | 100 | 125 | 129
17 | CC(=O)O[C@@]12CO[C@@H]1C[C@H](O)[C@@]1(C)C(=O)[C@H](O)C3=C(C)[C@@H](OC(=O)[C@H](O)[C@@H](NC(=O)OC(C)(C)C)c4ccccc4)C[C@@](O)([C@@H](OC(=O)c4ccccc4)[C@H]21)C3(C)C [Docetaxel] + C[C@@H](Oc1cc(-c2cnn(C3CCNCC3)c2)cnc1N)c1c(Cl)ccc(F)c1Cl [Crizotinib] (first compound 0.0001 µM, partner dose 0.2 µM) | 88.4 | 91.4 | 2540 | 2110 | 223 | 725 | 192 | 371 | 135

Copied from the list.
cleaved PARP positive nuclei fraction [4] [%] with COc1ccc(C2=N[C@@H](c3ccc(Cl)cc3)[C@@H](c3ccc(Cl)cc3)N2C(=O)N2CCNC(=O)C2)c(OC(C)C)c1 [Nutlin-3] + C#Cc1cccc(Nc2ncnc3cc(OCCOC)c(OCCOC)cc23)c1 [erlotinib] (first compound 0.1 µM, partner dose 0.8 µM) is entered as 186
cleaved PARP positive nuclei fraction [6] [%] with CCCCCCCCc1ccc(CCC(N)(CO)CO)cc1 [fingolimod] + CC(=O)c1c(C)c2cnc(Nc3ccc(N4CCNCC4)cn3)nc2n(C2CCCC2)c1=O [palbociclib] (first compound 2 µM, partner dose 0.04 µM) is entered as 53.7

From the supplement of paper PMC4604168 (melanoma cell lines)
